Experimental findings from patent publication US20260027209A1 (LEGEND BIOTECH IRELAND, published 2026) are described below.

Protein sequences, listed by entry. Tags and fused reporters are not part of them. Residues count along the entry.
UniProt P51654, 25-554 limits assumed: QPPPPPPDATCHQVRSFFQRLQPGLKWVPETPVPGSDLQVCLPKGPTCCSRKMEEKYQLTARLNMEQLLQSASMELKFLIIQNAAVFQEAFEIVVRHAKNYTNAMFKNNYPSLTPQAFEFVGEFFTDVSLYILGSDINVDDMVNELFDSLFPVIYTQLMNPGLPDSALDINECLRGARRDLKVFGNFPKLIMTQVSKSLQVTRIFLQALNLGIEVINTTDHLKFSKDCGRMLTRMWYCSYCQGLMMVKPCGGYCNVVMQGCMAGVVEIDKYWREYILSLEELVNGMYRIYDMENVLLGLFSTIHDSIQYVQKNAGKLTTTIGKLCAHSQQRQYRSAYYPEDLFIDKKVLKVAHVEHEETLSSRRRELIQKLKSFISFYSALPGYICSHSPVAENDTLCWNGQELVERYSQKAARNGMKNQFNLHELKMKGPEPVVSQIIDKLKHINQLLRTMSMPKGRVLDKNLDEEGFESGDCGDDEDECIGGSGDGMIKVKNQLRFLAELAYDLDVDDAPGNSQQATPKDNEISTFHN

The target of assay [1] is human GPC3 (human, UniProt P51654 25-554). Nature of the assay: cell-based or functional assay.
Assay [2] deals with T1, human Claudin-6 (human, UniProt P56747 1-220).
T1 sequence (looked up): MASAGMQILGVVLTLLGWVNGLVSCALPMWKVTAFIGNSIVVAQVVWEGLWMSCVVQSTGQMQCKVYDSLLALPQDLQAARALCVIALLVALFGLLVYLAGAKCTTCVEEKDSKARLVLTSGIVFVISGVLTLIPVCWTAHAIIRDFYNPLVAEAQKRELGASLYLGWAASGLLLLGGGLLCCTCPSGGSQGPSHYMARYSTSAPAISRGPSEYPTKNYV
Nature of the assay: cell-based or functional assay.

B1: LCAR-CNBCAR2 (other)
chain: DIVMTQSPLSLPVTPGEPASISCRSSQTIVHSNGNTYLEWYLQKPGQSPQLLIYKVSNRFSGVPDRFSGSGSGTDFTLKISRVEAEDVGVYYCFQVSHVPYTFGGGTKLEIKGSTSGSGKPGSGEGSTKGQVQLVQSGAEVKKPGASVKVSCKASGYTFTDYEMHWVRQATGQGLEWMGGIDPETGNTAYSQKFKGRVTMTRNTSISTAYMELSSLRSEDTAVYYCARYYSFAYWGQGTLVTVSSTSTTTPAPRPPTPAPTIASQPLSLRPEACRPAAGGAVHTRGLDFACDIYIWAPLAGTCGVLLLSLVITLYCKRGRKKLLYIFKQPFMRPVQTTQEEDGCSCRFPEEEEGGCELRVKFSRSADAPAYQQGQNQLYNELNLGRREEYDVLDKRRGRDPEMGGKPRRKNPQEGLYNELQKDKMAEAYSEIGMKGERRRGKGHDGLYQGLSTATKDTYDALHMQALPPR
B1: the “Specific Cytotoxicity % on ES-2.huGPC3.Luc cells, E/T=4:1” value in assay [1] stood at 89.4%. Also, the “Specific Cytotoxicity % on ES-2.huCLDN6.Luc cells, E/T=4:1” value in assay [2] was -19.7%.
